PubChem BioAssay AID1671195, Yale University, 2021

Screen: 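Genes whose knockdown alters LDL uptake in liver cancer cells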 (primary screen)
System: human Huh7 hepatoma cells
Reagent: siRNA pool against human genes, 18 nM
Timing: about 2 to 2.5 days of knockdown, then 8 h LDL uptake
Treatment: DiI-labelled LDL at 30 µg/ml for 8 h, in lipoprotein-deficient serum medium
Measured: 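Per-cell DiI-LDL intensity by automated imaging; well means scaled to the plate median and given as a robust z-score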
Reading the numbers: robust z-score: higher = more LDL uptake after knockdown
Call rule: 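a gene counts as active if at least two replicate z-scores exceed ±2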
Shown is a random part of about 22,000 reagents. In the full data, about 1,510 (6.9%) got an active call. 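Active includes knockdowns raising or lowering LDL uptake; positive z-scores mean more uptake, negative mean less.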 A number with no mark means an inactive call. Reagents against one gene are numbered here.

EYA3 gave robust z-score, replicate 1 = 0.224; robust z-score, replicate 2 = -0.34; robust z-score, replicate 3 = -0.61.
With knock-down of DNAH14 #1, the screen gave robust z-score, replicate 1 = 0.436; robust z-score, replicate 2 = 0.804; robust z-score, replicate 3 = 1.01.
With knock-down of DNAH14 #2 the results were robust z-score, replicate 1 = -0.929; robust z-score, replicate 2 = -0.526; robust z-score, replicate 3 = -0.633.
For SPTB, the values are robust z-score, replicate 1 = -0.126; robust z-score, replicate 2 = -1.55; robust z-score, replicate 3 = 0.579.
Depletion of GDE1 came out at: robust z-score, replicate 1 = 0.887; robust z-score, replicate 2 = -0.424; robust z-score, replicate 3 = 0.363.

2 entries from above, ordered by “robust z-score, replicate 1”, highest first.
SPTB → robust z-score, replicate 1: -0.126; robust z-score, replicate 2: -1.55; robust z-score, replicate 3: 0.579
DNAH14 #2 → robust z-score, replicate 1: -0.929; robust z-score, replicate 2: -0.526; robust z-score, replicate 3: -0.633

The results go on.
Silencing of CCSAP resulted in: robust z-score, replicate 1 = 0.157; robust z-score, replicate 2 = -0.144; robust z-score, replicate 3 = -1.07.
After knock-down of PI16 the results were robust z-score, replicate 1 = -1.6; robust z-score, replicate 2 = -1.77; robust z-score, replicate 3 = -1.55.
PPM1A showed robust z-score, replicate 1 = -0.192; robust z-score, replicate 2 = -0.22; robust z-score, replicate 3 = -0.496.
LOC285721 (retired record) showed robust z-score, replicate 1 = -1.17; robust z-score, replicate 2 = -0.904; robust z-score, replicate 3 = -1.14.
After knock-down of GALT the results were robust z-score, replicate 1 = 1.54; robust z-score, replicate 2 = 0.903; robust z-score, replicate 3 = 1.5.
For MPHOSPH10, the entry reads robust z-score, replicate 1 = -0.624; robust z-score, replicate 2 = -0.737; robust z-score, replicate 3 = -0.813.
After knock-down of APPL1, the screen gave robust z-score, replicate 1 = 1.73; robust z-score, replicate 2 = 1.53; robust z-score, replicate 3 = 1.84.
